Experimental data: the supplement of paper PMC11150407
Hit rate of the full screen: of about 3,000 compounds, about 45 (2%) showed an effect of 50% or more. This is one part of the list.

These compounds were tested on MOLM1 and UCSD/AML1 (averaged) (assay: cell viability relative to DMSO control (POC); higher = less growth inhibition). Conditions: 1 µM; 72 h.
Protocol: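 Primary viability screen in the 3q26 EVI1-high AML cell lines MOLM1 and UCSD/AML1, compounds at 1 uM for 72 h. ATP CellTiter-Glo read-out given as percent viable over DMSO control (POC), averaged over duplicates. This mapping covers the TimTec NDL-3000 natural derivative library, whose compounds are identified by TimTec catalogue codes (ST...).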

Compound | cell viability [%]
COC(=O)C(c1cc(OC)c(O)c(OC)c1)(N1CCNC(C)C1)C(F)(F)F (stereo not drawn) | 106
COc1ccc(OC)c(C(=O)CC2OC(=O)c3c2ccc(OC)c3OC)c1 (stereo not drawn) | 104
Cc1ccc2cc3c(nc2c1)-c1ccccc1C3=O | 82.9
COC(C)(C)CCCC(C)(O)C#CC(C)N1CCCCC1c1cccnc1 (stereo not drawn) | 95.5
Cc1ccc(NC(=O)c2cc3ccccc3oc2=N)cc1 | 87.9
COc1cc(OC)cc(C(=O)Nc2nnc(CC(C)(C)C)s2)c1 | 79.7
CCOC(=O)c1c(C)n(CCCNc2ccc([N+](=O)[O-])cc2Cl)c2ccc(O)cc12 | 94.2
CCOc1cc(C2C(C(=O)OCCSCC)=C(C)NC3=C2C(=O)CC(c2ccc(Cl)cc2)C3)ccc1O (stereo not drawn) | 101
COc1ccc2c(c1)c(CC(=O)NC(c1ccccc1)c1ccc(Br)cc1)c(C)n2C(=O)c1ccc(Cl)cc1 (stereo not drawn) | 85
Cc1cc(C)c2oc(-c3ccccc3C(=O)O)cc(=O)c2c1 | 88.6
O=C(Cn1c(=O)cc(C(=O)NCc2ccccc2)c2ccccc21)Nc1ccc(F)c(Cl)c1 | 89.3
COc1ccc(CCNC(=O)CCc2ccccc2O)cc1OC | 98.8
Cn1c2c(c(=O)n(C)c1=O)C(c1cccc(F)c1)C(C#N)=C(N)O2 (stereo not drawn) | 104
COc1ccc(/C=C2\Oc3cc(O)ccc3C2=O)cc1 | 95.9
COc1cc(C2NC(=O)N(C)C(C)=C2C(=O)OCCc2ccccc2)cc(Br)c1O (stereo not drawn) | 107
Cc1[nH]c2ccccc2c1CCNC(=O)c1ccc(F)cc1 | 90
O=C(Nc1nc2c(ncn2C2OC(CO)C(O)C2O)c(=O)[nH]1)C(Cc1ccccc1)N1C(=O)c2ccccc2C1=O (stereo not drawn) | 89.9
Cc1[nH]c2ccccc2c1CCNC(=O)c1ccc(Cl)cc1Cl | 95.3
CCOC(=O)c1ccc2[nH]c(=O)c(C)c(O)c2c1 | 108

Compound | cell viability [%]
COc1cc(C(=O)Nc2ccccc2Cl)cc(OC)c1OC | 105
COc1cc(OC)c2c(c1)C(=O)NN1C(=O)OC(C)(C)C21C (stereo not drawn) | 98.2
COc1ccccc1C(=O)OCC1CCCN2CCCCC12 (stereo not drawn) | 97.9
CC(C)OC(=O)c1ccc2c(c1)OCCOCCOc1ccc(C(=O)OC(C)C)cc1OCCOCCO2 | 101
Nc1ccn(C2OC(CO)C3OP(=O)(O)OC32)c(=O)n1 (stereo not drawn) | 94.8
COC(=O)c1ccc(CSc2nc3c(=O)[nH]c(C)nc3n2C)cc1 | 95.8
CC(C)Oc1ccccc1C1Nc2ccccc2NC2=C1C(=O)CC(c1ccccc1Cl)C2 (stereo not drawn) | 108
CN(c1ccc(OCc2cc(=O)[nH]c3ccccc23)cc1)S(C)(=O)=O | 90.8
COc1cc(OC)cc(C(=O)Nc2nnc(CC(C)C)s2)c1 | 85.9
COc1ccc(C(=O)NC2CCC(CC3CCC(NC(=O)c4ccc(OC)c(OC)c4)CC3)CC2)cc1OC (stereo not drawn) | 102
CC(=O)OC1CCC2(C)C(CCC3(C)C2C(=O)C=C2C4CC(C)(C(=O)Nc5cccc([N+](=O)[O-])c5)CCC4(C)CCC23C)C1(C)C (stereo not drawn) | 103
Cn1c(=O)c2c(nc(Br)n2CC(=O)O)n(C)c1=O | 103
Cc1ccc(NC(=O)CSc2nc(C)cc(=O)[nH]2)cc1 | 103
COc1cc(C(=O)CCNc2ccc(I)cc2)cc(OC)c1OC | 91.4
COc1ccc(-c2coc3cc(OC4OC(COC(C)=O)C(OC(C)=O)C(OC(C)=O)C4OC(C)=O)cc(OC(C)=O)c3c2=O)cc1 (stereo not drawn) | 90.2
Cc1ccc(C)c(NC(=O)Cn2c(=O)cc(C(=O)N3CCc4ccccc4C3)c3ccccc32)c1 | 100
O=C(O)CCC(=O)N1N=C(c2c(-c3ccccc3)c3cc(Cl)ccc3[nH]c2=O)CC1c1cccc([N+](=O)[O-])c1 (stereo not drawn) | 95.7
COc1ccc(CC(=O)NCCc2c(C)[nH]c3ccccc23)cc1 | 99.3
O=c1oc2ccccc2cc1-c1cccc(Cl)c1 | 93.4

Fetched by compound from above, 2 records:
Compound | cell viability [%]
COc1cc(OC)cc(C(=O)Nc2nnc(CC(C)C)s2)c1 | 85.9
Cc1ccc(C)c(NC(=O)Cn2c(=O)cc(C(=O)N3CCc4ccccc4C3)c3ccccc32)c1 | 100
